The text below walks through data of US5811389 (dated 1998).

Data set [1] is described as follows: general procedure: peptide synthesis; p-hydroxymethylphenoxy-polystyrene resin; 4-(2',4'-dimethoxyphenyl-hydroxymethyl)phenoxy-polystyrene resin (Novabiochem); TBTU/DIPEA; HBTU/DIPEA. Conditions: trifluoroacetate; for cyclisation yield: cyclisation step; for conjugation yield: conjugation step.
A short description of data set [2]: general procedure: peptide synthesis; Fmoc-Lys(Boc)-Sasrin; TBTU/DIPEA; HBTU/DIPEA. Conditions: whole synthesis, scale 0.26 mmol, trifluoroacetate (1:2).

Regarding “3,7-dimethoxy-10-methyl-4,6-cyclo-[acetyl-glycyl-glycyl-L-alanyl-glycyl-aminomethyl]phenothiazine”, the cyclisation yield in data set [1] is 24.6%. For “(10-benzyl-6-tert.-butoxycarbonylaminomethyl-3,7-dimethoxy-phenothiazin-4- yl)-acetyl-glycyl-glycyl-L-alanyl-glycine methyl ester”, the conjugation yield in data set [1] is reported as 82.9%. Same read-out and setting: the value for “[3,7-dimethoxy-10-methyl-6-(1,3-dioxo-2,3-dihydro-1H-isoindol-2-ylmethyl)- phenothiazin-4-yl]-acetyl-glycyl-glycyl-L-alanyl-glycine methyl ester” was 81.5%. Same read-out and setting: the value for “(6-tert.-butoxycarbonyl-aminomethyl-10-hexyl-3,7-dimethoxy-phenothiazin-4- yl)-acetyl-glycyl-glycyl-L-alanyl-glycine methyl ester” was 77.6%. Regarding “10-hexyl-3,7-dimethoxy-4,6-cyclo-[acetyl-glycyl-glycyl-L-alanyl-glycyl-aminomethyl]phenothiazine”, the cyclisation yield in data set [1] is given as 41.2%. The substance “4,5-Cyclo-[acetyl-L-valyl-L-arginyl-L-lysyl-L-isoleucyl-aminomethyl]-3,6-dimethoxy-9,9-dimethylxanthene trifluoroacetate” displayed an isolated mass in data set [2] of 26 mg.
